# Experimental data published in the supplement of paper PMC12067093, “Discovery and optimisation of a covalent ligand for TRIM25 and its application to targeted protein ubiquitination” (Chemical Science, 2025).
# Amino acid sequences for entries named in this document (tags omitted). A change or cut given only in a name is not applied to a line headed by its entry.
# UniProt Q7Z333: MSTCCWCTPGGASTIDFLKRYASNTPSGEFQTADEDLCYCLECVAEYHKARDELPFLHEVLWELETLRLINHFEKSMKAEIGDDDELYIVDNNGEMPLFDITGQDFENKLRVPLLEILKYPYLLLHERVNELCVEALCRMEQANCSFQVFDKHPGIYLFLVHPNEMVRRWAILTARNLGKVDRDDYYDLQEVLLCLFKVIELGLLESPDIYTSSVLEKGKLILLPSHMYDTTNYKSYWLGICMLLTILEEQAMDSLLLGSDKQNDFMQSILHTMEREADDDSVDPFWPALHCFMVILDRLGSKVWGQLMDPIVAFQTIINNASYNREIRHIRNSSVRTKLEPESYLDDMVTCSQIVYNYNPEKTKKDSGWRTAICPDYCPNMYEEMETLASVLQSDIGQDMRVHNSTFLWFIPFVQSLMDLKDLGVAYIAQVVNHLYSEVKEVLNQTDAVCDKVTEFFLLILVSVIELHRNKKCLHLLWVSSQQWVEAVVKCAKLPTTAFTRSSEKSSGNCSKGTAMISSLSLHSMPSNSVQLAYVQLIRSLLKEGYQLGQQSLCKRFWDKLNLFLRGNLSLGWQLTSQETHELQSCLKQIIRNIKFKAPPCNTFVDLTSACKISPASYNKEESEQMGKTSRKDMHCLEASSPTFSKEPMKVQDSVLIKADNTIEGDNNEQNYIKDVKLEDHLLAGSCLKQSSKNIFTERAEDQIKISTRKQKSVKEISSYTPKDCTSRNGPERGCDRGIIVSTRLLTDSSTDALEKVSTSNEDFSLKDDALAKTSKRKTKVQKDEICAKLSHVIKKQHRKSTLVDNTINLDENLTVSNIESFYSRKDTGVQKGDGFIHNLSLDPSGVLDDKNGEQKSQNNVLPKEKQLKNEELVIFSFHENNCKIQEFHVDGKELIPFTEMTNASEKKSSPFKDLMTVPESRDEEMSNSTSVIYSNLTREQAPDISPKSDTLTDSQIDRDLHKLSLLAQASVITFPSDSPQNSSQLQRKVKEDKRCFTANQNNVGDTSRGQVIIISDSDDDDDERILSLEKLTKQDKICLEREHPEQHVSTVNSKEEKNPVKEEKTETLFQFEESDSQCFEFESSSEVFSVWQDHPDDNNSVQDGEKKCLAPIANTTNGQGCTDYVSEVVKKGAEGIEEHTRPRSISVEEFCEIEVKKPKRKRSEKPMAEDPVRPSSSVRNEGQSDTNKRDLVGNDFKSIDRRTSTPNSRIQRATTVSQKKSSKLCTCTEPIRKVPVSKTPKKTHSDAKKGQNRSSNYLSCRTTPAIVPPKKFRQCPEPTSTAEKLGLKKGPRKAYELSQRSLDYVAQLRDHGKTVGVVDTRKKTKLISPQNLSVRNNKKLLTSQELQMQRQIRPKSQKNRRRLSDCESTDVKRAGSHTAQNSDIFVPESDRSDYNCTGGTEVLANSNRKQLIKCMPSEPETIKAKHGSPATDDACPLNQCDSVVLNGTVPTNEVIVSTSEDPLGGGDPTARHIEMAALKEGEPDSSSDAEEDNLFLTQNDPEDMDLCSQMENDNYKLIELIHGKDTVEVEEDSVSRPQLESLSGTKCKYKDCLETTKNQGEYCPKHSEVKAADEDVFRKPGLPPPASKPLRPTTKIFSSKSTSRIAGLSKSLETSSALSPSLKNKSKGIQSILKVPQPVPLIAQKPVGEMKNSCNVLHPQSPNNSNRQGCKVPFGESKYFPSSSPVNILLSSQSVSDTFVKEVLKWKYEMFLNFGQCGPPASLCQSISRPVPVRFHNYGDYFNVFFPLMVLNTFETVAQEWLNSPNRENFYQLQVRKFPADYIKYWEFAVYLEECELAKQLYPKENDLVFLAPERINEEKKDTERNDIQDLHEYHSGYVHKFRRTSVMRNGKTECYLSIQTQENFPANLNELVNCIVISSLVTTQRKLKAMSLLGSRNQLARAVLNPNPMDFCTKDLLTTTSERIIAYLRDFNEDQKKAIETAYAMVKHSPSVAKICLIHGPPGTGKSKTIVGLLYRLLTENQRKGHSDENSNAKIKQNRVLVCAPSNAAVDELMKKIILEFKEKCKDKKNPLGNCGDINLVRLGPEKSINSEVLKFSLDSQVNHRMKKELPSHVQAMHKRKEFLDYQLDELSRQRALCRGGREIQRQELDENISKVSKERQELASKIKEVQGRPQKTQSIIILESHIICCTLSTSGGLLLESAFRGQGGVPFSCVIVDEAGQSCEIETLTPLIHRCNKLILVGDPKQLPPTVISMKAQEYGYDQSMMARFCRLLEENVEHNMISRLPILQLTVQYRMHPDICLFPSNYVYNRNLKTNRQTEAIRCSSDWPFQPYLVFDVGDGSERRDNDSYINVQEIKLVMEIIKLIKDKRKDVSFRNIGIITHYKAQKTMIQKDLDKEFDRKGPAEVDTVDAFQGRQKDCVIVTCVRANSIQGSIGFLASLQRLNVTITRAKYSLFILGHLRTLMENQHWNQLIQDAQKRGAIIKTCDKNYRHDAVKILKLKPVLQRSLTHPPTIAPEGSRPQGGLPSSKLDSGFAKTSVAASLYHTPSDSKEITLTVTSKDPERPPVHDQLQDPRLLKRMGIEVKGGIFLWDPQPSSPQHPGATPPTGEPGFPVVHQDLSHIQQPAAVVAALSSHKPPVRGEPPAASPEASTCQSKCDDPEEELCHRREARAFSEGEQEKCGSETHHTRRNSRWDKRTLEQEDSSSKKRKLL
# UniProt P35237: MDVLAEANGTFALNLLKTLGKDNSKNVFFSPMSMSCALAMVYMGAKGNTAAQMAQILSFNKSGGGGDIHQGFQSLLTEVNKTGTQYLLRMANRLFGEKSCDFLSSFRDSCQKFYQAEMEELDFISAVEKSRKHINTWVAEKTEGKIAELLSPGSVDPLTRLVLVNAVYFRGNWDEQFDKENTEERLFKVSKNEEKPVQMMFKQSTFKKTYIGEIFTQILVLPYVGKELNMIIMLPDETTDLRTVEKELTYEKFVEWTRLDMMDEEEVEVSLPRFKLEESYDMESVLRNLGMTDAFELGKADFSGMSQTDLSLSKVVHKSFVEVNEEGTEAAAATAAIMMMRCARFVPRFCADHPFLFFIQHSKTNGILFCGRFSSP
# UniProt Q9NVA2: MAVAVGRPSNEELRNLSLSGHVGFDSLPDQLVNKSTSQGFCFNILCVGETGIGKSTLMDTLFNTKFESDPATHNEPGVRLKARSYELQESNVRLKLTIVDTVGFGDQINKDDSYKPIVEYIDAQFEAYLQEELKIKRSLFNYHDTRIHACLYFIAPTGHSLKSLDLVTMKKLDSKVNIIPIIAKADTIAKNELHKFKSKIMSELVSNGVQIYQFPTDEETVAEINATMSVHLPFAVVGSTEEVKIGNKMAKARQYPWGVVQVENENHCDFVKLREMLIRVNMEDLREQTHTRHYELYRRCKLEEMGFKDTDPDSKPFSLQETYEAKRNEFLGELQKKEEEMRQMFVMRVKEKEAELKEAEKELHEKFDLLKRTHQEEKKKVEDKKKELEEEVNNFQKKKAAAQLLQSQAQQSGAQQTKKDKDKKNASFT
# UniProt Q96B97, whole entry, looked up: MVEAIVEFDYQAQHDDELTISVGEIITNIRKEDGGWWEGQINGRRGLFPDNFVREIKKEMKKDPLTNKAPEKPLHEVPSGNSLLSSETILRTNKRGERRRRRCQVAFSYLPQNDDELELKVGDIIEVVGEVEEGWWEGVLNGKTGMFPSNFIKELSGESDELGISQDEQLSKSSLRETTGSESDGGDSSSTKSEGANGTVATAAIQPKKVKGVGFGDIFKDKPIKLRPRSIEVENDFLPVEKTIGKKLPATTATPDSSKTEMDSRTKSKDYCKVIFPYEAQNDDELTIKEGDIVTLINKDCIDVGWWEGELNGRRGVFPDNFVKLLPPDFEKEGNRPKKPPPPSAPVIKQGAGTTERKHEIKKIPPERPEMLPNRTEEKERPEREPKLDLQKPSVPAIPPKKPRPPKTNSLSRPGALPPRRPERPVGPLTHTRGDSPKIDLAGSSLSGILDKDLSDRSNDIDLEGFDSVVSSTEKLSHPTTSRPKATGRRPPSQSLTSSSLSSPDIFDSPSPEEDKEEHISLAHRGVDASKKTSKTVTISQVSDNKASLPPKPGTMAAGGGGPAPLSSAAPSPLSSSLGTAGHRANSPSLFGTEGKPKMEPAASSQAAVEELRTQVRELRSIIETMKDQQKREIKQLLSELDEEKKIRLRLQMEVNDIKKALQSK
# UniProt Q9UBX3: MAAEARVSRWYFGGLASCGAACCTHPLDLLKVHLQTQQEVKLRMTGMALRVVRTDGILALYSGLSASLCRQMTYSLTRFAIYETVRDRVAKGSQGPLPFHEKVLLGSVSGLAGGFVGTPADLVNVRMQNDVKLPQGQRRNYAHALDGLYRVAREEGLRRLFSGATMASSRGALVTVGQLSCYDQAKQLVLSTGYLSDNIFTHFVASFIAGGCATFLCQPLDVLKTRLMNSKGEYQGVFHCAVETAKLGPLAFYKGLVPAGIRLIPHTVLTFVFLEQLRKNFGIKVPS
# UniProt Q96HU1: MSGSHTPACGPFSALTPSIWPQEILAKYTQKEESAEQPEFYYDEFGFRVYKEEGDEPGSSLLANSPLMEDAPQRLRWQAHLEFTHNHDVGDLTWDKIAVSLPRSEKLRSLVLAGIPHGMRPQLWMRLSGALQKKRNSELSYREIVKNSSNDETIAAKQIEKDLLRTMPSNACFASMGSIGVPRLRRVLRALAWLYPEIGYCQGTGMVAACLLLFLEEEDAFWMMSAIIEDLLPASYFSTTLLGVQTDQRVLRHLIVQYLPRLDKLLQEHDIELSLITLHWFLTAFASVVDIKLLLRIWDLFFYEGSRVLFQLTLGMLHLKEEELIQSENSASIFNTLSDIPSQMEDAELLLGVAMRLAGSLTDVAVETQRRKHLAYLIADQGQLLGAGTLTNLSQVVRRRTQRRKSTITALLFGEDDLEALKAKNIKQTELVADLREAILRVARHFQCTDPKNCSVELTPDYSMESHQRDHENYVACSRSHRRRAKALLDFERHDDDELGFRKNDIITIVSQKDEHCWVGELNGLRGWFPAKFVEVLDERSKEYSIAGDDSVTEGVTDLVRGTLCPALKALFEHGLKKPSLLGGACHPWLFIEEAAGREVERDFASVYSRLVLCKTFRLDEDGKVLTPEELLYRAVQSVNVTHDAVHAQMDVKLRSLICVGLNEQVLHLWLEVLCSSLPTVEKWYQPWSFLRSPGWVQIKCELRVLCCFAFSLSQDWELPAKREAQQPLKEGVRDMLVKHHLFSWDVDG
# UniProt Q92599: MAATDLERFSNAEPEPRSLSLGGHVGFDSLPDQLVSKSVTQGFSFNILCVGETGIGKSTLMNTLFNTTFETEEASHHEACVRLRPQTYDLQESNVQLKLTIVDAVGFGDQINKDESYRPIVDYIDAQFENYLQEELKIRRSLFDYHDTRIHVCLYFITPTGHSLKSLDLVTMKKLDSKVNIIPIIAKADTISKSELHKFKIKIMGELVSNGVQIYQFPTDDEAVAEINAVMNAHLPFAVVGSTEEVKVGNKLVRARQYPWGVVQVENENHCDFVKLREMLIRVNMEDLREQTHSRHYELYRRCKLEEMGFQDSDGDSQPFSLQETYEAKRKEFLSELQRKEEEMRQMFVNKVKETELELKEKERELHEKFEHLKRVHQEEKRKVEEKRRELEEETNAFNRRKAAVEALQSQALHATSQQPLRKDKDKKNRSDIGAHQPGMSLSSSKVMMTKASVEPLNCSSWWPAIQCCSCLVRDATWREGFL
# UniProt Q8IXJ6: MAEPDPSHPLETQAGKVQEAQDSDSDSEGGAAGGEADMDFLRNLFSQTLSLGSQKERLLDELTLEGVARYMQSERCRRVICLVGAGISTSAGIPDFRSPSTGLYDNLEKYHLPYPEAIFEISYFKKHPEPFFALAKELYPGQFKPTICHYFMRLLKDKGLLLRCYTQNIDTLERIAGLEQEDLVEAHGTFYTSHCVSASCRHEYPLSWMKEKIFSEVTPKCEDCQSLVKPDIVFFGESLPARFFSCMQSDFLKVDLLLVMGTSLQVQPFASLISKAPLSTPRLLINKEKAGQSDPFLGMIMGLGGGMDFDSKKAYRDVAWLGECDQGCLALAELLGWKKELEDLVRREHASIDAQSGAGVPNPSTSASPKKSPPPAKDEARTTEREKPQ
# UniProt Q7L8J4: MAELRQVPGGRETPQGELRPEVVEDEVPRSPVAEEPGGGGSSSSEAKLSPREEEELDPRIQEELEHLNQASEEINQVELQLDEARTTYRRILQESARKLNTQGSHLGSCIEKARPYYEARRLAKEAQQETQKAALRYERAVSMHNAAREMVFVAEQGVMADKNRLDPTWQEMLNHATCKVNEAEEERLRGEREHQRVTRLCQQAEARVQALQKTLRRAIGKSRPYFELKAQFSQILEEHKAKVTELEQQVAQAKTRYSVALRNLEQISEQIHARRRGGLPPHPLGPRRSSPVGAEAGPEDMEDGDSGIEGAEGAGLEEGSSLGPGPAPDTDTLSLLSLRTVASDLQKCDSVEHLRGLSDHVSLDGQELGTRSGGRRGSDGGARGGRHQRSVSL
# The list shows a part of the results.
# Compound: CC1Cc2ccccc2N1C(=O)C1CCCN(C1)C(=O)CCl (mixture of isomers) [TRIM25 ligand 11 (diastereomer mixture)]
# Test: probe-labelled cysteine peptide fold change vs DMSO (competition) (log2 fold change); higher = less target engagement (more negative = stronger competition)
# Conditions: THP-1, incubation time: 4 h
# 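Note: competitive chemoproteomic profiling in live THP-1 cells with an iodoacetamide desthiobiotin (IA-DTB) probe, comparing probe-labelled peptide intensities in compound-treated cells against DMSO-treated controls.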
Target,probe-labelled cysteine peptide fold change (10 µM),probe-labelled cysteine peptide fold change (50 µM)
SETX_Q7Z333_1416_CMPSEPETIK (UniProt Q7Z333),-0.13,-0.585
SLC25A5_P05141_257_KGTDIMYTGTLDCWR (UniProt P05141),-0.0817,-0.062
SERPINB6_P35237_350_FCADHPFLFFIQHSK (UniProt P35237),-0.131,-0.0851
SEPT11_Q9NVA2_46_STSQGFCFNILCVGETGIGK (UniProt Q9NVA2),-0.0542,-0.0173
SETX_Q7Z333_2384+2389_DCVIVTCVR (UniProt Q7Z333),0.0808,0.176
SH3KBP1_Q96B97_301_DCIDVGWWEGELNGRR (UniProt Q96B97),-0.0866,-0.063
SF3B1_O75533_933_VKPYLPQICGTVLWR (UniProt O75533),-0.152,-0.119
SLC25A10_Q9UBX3_23_WYFGGLASCGAACCTHPLDLLK (UniProt Q9UBX3),0.196,0.236
SGSM3_Q96HU1_517_DEHCWVGELNGLR (UniProt Q96HU1),0.0468,0.194
SEPT8_Q92599_80_STLMNTLFNTTFETEEASHHEACVR (UniProt Q92599),0.221,-0.0644
SF3B3_Q15393_1156_SEHPPLCGR (UniProt Q15393),0.115,-0.108
SERBP1_Q8NC51_11_PGHLQEGFGCVVTNRFDQLFDDESDPFEVLK (UniProt Q8NC51),-0.323,-0.648
SIRT2_Q8IXJ6_221_CEDCQSLVKPDIVFFGESLPAR (UniProt Q8IXJ6),0.0619,0.0195
SETDB1_Q15047_1207_QFYDGEESCYIIDAK (UniProt Q15047),-0.0777,-0.0706
SH3BP5L_Q7L8J4_178_NRLDPTWQEMLNHATCK (UniProt Q7L8J4),-0.0336,-0.0872
SIRT2_Q8IXJ6_164_CYTQNIDTLER (UniProt Q8IXJ6),0.00114,-0.0419

# As a working copy, some entries already given:
Target,probe-labelled cysteine peptide fold change (10 µM),probe-labelled cysteine peptide fold change (50 µM)
SGSM3_Q96HU1_517_DEHCWVGELNGLR (UniProt Q96HU1),0.0468,0.194
SEPT8_Q92599_80_STLMNTLFNTTFETEEASHHEACVR (UniProt Q92599),0.221,-0.0644
